According to article PMC6018480:

T1: HrDEF (Habenaria radiata) (UniProt B6ZDS4)
T1 sequence: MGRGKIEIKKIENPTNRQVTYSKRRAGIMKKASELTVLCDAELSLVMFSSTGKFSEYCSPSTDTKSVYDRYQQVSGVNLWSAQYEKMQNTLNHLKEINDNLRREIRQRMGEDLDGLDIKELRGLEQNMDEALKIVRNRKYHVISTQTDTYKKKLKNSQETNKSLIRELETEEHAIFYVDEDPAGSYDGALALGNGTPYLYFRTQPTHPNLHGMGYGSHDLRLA

B1: HrDEF (protein, UniProt B6ZDS4 1-223)
chain: MGRGKIEIKKIENPTNRQVTYSKRRAGIMKKASELTVLCDAELSLVMFSSTGKFSEYCSPSTDTKSVYDRYQQVSGVNLWSAQYEKMQNTLNHLKEINDNLRREIRQRMGEDLDGLDIKELRGLEQNMDEALKIVRNRKYHVISTQTDTYKKKLKNSQETNKSLIRELETEEHAIFYVDEDPAGSYDGALALGNGTPYLYFRTQPTHPNLHGMGYGSHDLRLA

How the values were obtained:
[1] = target: T1, HrDEF (Habenaria radiata); assay: two-hybrid; GAL4 system; baits as GAL4 DNA-BD fusions in pDEST32 in yeast PJ69-4α, preys as GAL4 AD fusions in pDEST22 in PJ69-4A; activation of ADE on SD/-Leu-Trp-Ade and lacZ by X-gal staining; in triplicate, growth scored after 7 days at 20°C
[2] = target: HrSEP-1 (Habenaria radiata); assay: as above

Row | Molecule | binding [1] | binding [2]
1 | HrSEP-1 (Habenaria radiata) | binds | 
2 | B1 |  | binds

No constants are given. Whether binding was seen depends on the method and setting. Binding can be weak; no strength is given.
